Test results from patent US20240117385A1, “ENZYMES OF LUCIFERIN BIOSYNTHESIS AND USE THEREOF” (LIGHT BIO, INC., priority 2018, published 2024).
“And” between values parts separate entries of the source, which are not always exact repeats. Equal entries are not always repeated.

Test system: luciferase
Assay: Emission maximum of light emitted at luciferin oxidation with luciferase
Type: biochemical
Conditions: not given

In the case of `O=c1oc(/C=C/c2ccc(O)c(O)c2)cc(O)c1O` [3-hydroxy hispidin, (E)-6-(3,4-dihydroxystyryl)-3,4-dihydroxy-2H-pyran-2-one], the “Light emitted at oxidation, range” value is reported as 400 to 700 nm.

Same assay, conditions: light emitted at oxidation of the luciferin

In the case of `O=c1oc(/C=C/c2ccc(O)c(O)c2)cc(O)c1O` [3-hydroxy hispidin, (E)-6-(3,4-dihydroxystyryl)-3,4-dihydroxy-2H-pyran-2-one], the Emission maximum is reported as 520-590 nm and 538 nm.

Point of comparison: `O=c1oc(/C=C/c2c[nH]c3ccccc23)cc(O)c1O` [(E)-6-(2-(1H-indol-3-yl)vinyl)-3,4-dihydroxy-2H-pyran-2-one], Emission maximum 480 nm. Against it:
- O=c1oc(/C=C/c2cc3c4c(c2)CCCN4CCC3)cc(O)c1O [(E)-3,4-dihydroxy-6-(2-(2,3,6,7-tetrahydro-1H,5H-pyrido[3,2,1-ij]quinolin-9-yl)vinyl)-2H-pyran-2-one] — higher, 534 nm
- O=c1oc(/C=C/c2ccc3cc(O)ccc3c2)cc(O)c1O [(E)-3,4-dihydroxy-6-(2-(6-hydroxynaphthalen-2-yl)vinyl)-2H-pyran-2-one] — higher, 564 nm
- O=c1oc(/C=C/c2ccc(O)cc2)cc(O)c1O [(E)-3,4-dihydroxy-6-(4-hydroxystyryl)-2H-pyran-2-one] — higher, 520 nm
- CCN(CC)c1ccc(/C=C/c2cc(O)c(O)c(=O)o2)cc1 [(E)-6-(4-(diethylamino)styryl)-3,4-dihydroxy-2H-pyran-2-one] — higher, 504 nm
